Assay results published in paper doi:10.1101/2025.11.17.685403.

Biological target: T1, RFS1 (C. elegans) made in E. coli with a His-MBP tag, tag cleaved (C. elegans) (UniProt P34348)
T1 sequence: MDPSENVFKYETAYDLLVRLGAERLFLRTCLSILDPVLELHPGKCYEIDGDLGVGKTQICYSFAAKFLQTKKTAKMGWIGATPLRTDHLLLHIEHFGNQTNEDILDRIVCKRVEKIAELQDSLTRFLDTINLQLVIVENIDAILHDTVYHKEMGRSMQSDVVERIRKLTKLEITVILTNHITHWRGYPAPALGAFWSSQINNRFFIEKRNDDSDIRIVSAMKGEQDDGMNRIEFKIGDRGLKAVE
Assay: SEC

binding: binds
Substance: RIP1 (C. elegans) made in E. coli with a His-MOCR tag, tag cleaved

These are yes or no findings as the source states them, for the method shown. Binding calls can cover weak binding; strength is not graded here. Sequences can lack the tags named with a protein.
